These results are taken from the supplement of paper PMC12595434, “Development of retinoid nuclear receptor pathway antagonists through targeting aldehyde dehydrogenase 1A3” (iScience, 2025).

Protein sequences, listed by entry. Tags and fused reporters are not part of them. Lines headed by an entry give the natural chain unless they say otherwise; changes in a name come on top.
UniProt Q13356: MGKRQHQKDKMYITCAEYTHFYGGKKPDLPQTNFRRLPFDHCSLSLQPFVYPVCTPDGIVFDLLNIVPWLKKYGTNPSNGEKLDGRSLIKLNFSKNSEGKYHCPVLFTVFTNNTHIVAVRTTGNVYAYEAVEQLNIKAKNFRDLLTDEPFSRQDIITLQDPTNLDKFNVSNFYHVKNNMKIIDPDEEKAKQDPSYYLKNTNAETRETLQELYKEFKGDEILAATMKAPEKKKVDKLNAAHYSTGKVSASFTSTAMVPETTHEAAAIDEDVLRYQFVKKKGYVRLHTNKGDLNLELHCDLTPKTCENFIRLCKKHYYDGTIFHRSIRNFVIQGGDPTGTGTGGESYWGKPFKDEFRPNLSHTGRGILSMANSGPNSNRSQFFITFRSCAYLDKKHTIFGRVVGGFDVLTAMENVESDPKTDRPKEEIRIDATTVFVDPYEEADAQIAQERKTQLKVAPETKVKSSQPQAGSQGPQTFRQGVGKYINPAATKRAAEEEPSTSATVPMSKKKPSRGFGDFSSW
UniProt Q14008: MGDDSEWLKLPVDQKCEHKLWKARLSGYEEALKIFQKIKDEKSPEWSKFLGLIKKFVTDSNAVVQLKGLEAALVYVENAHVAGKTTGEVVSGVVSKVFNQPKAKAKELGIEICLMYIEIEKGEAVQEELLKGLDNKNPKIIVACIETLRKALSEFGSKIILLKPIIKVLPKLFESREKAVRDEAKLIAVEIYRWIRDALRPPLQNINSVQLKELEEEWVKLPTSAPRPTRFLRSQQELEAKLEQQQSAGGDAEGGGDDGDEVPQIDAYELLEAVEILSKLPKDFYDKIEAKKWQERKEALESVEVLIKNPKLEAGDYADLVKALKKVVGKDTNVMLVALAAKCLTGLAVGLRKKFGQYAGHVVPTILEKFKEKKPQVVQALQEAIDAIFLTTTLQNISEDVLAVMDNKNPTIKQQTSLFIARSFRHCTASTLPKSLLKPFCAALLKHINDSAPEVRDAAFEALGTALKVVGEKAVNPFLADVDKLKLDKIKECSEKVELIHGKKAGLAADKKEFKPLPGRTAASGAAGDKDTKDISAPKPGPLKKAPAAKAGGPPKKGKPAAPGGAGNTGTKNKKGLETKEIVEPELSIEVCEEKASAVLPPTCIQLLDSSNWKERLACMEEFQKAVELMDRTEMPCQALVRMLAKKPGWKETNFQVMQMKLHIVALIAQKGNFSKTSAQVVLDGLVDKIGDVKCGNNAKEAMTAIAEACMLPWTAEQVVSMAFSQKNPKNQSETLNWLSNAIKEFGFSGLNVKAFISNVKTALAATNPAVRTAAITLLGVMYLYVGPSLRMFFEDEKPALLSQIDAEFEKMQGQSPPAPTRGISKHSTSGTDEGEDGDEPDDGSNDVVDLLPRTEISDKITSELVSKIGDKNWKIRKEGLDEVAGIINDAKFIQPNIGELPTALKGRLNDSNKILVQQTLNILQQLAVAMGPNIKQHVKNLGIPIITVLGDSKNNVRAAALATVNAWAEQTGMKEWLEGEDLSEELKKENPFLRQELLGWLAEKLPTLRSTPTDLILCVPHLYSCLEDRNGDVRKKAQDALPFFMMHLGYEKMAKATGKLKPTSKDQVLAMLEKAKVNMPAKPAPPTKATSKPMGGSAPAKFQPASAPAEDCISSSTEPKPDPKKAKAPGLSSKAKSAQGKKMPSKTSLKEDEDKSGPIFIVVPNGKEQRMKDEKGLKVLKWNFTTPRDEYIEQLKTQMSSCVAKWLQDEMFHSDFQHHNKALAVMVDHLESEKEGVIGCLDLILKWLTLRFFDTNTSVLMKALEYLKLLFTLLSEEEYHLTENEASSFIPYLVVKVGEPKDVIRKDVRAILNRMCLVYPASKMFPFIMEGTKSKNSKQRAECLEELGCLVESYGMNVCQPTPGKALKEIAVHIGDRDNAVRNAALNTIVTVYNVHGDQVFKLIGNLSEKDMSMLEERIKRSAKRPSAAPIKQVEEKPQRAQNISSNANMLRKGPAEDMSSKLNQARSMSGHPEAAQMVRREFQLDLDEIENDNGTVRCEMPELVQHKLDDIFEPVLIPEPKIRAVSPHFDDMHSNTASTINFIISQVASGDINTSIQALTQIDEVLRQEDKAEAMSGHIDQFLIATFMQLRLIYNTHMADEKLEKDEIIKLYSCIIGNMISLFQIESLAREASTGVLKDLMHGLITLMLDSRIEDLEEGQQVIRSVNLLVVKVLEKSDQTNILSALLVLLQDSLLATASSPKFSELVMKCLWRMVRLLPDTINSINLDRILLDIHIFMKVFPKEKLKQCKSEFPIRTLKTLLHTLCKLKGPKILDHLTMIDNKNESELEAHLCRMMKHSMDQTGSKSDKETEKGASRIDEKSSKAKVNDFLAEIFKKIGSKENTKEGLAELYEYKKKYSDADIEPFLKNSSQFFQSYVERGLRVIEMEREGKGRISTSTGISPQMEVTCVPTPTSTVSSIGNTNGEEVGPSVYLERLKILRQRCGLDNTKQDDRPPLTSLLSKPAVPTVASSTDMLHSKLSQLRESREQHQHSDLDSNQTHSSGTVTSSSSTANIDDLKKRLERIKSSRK
UniProt Q14642: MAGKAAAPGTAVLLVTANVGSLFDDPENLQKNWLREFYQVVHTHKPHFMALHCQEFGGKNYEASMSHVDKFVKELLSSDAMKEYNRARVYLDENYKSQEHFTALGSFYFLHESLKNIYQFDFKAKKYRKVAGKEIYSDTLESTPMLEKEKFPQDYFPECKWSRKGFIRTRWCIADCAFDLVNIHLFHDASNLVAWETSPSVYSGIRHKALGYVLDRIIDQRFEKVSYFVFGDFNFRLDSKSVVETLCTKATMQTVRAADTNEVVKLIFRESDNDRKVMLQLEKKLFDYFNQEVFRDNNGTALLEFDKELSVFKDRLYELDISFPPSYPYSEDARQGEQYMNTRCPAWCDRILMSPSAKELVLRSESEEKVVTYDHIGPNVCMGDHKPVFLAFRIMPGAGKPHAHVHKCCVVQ
UniProt Q14693: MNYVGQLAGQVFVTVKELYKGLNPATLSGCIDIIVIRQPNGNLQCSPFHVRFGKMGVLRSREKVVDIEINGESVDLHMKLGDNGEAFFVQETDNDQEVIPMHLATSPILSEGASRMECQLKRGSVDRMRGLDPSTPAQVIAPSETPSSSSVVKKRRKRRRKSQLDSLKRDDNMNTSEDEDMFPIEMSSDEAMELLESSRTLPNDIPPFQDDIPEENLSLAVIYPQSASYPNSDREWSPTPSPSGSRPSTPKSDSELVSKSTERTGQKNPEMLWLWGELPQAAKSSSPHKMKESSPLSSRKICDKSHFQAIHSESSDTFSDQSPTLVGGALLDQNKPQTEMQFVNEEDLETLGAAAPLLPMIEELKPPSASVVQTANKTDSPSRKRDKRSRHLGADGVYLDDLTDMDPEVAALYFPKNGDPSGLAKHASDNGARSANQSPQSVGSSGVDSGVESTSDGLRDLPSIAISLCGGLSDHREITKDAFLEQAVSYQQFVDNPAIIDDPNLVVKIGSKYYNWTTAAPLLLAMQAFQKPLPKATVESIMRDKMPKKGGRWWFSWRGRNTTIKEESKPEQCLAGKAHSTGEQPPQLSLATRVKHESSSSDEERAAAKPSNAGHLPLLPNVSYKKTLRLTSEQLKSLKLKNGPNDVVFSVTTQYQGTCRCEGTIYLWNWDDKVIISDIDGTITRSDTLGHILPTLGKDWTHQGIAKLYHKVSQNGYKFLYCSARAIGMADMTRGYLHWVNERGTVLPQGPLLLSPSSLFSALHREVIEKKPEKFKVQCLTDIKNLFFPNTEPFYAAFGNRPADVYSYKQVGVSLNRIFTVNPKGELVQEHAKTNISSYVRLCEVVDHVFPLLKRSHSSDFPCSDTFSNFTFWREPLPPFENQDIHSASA
UniProt Q13503: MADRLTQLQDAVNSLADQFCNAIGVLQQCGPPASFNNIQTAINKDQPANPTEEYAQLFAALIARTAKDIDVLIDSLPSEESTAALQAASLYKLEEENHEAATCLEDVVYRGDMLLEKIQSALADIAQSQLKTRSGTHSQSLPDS
UniProt Q14849, whole entry: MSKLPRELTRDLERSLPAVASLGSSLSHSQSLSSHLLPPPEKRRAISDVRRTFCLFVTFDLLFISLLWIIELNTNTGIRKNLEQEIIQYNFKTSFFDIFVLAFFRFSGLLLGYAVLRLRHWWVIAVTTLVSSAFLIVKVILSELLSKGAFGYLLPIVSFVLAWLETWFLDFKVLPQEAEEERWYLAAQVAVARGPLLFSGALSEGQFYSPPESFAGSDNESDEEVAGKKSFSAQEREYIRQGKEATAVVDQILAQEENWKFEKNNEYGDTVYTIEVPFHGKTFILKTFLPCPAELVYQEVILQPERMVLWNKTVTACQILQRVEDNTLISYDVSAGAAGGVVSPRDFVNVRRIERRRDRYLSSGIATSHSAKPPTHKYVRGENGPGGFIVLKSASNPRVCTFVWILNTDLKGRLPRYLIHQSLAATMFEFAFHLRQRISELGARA
UniProt Q13616, whole entry: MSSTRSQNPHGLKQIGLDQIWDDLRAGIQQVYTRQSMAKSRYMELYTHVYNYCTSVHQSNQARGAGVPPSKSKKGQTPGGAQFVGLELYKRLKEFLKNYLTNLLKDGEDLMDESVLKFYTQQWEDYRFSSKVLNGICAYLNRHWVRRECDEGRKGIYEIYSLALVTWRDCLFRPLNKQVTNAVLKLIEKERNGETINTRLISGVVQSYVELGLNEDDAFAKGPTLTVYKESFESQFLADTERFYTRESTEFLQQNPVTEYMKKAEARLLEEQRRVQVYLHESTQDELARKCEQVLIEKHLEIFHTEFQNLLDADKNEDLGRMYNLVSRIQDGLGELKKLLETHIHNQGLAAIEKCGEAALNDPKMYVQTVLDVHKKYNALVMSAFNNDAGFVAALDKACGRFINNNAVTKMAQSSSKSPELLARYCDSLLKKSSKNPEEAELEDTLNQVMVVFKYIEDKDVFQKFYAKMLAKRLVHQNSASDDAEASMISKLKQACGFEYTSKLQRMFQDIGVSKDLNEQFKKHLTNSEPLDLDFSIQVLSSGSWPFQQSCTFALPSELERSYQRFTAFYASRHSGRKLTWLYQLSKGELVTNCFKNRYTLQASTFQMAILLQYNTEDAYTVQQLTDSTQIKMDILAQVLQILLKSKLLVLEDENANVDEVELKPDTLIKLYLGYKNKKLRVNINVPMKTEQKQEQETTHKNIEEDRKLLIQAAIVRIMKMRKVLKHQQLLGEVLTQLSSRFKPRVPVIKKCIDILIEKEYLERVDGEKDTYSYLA
UniProt Q14534: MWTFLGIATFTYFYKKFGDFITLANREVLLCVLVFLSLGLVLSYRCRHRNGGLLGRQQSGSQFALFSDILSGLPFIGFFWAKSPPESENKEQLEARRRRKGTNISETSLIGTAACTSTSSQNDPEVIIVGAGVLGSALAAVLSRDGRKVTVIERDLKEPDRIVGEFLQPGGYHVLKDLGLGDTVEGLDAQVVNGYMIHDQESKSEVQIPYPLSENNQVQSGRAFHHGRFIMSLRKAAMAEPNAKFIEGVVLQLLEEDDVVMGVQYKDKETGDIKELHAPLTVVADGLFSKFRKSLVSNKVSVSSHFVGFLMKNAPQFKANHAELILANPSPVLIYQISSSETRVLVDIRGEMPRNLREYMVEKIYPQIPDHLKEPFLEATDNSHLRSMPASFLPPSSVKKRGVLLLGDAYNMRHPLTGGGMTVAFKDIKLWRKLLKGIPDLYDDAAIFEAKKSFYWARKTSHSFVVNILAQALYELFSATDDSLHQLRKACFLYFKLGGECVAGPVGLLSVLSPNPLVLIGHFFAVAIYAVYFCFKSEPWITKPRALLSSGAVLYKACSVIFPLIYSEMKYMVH
UniProt Q14376: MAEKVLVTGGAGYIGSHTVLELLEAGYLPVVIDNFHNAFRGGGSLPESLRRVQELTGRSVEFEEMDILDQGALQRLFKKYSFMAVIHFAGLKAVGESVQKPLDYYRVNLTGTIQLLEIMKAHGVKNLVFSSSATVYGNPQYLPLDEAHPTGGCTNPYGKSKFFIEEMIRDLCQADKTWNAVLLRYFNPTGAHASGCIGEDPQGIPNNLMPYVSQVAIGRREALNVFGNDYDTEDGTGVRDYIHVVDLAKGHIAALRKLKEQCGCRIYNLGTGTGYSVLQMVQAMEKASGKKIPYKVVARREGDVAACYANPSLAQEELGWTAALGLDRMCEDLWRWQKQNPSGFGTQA
UniProt Q13795: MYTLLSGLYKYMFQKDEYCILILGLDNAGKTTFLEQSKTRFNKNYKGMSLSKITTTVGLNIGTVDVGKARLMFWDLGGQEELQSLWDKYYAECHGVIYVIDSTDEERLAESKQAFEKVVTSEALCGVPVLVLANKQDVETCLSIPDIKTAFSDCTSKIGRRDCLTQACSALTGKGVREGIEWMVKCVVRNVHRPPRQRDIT

The list shows a part of the results. Single values of this set are uncertain.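 Tm was set to 64 °C where no melting was found, and many curves are irregular.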

Compound in the test: CCc1cnccc1C(=O)Nc1cc2c(cc1F)NC(=O)CC2
In words: melting temperature shift (DMSO Tm minus MBE1-treated Tm) in cellular thermal proteome profiling; higher = less thermal stabilization by MBE1 (negative = stabilized by MBE1). The note with it: A375.

For the target PICALM (UniProt Q13492), the melting temperature shift is -0.483 °C (MBE1 concentration: 100 nM) and -0.0939 °C (MBE1 concentration: 1 uM).
For PPIL2 (UniProt Q13356), the melting temperature shift was -0.902 °C (MBE1 concentration: 100 nM) and -0.432 °C (MBE1 concentration: 1 uM).
For KARS (UniProt Q15046), in that order: 1.01 °C and 0.574 °C.
For CKAP5 (UniProt Q14008), in that order: -0.56 °C and -0.508 °C.
For INPP5A (UniProt Q14642), in that order: 1.12 °C and 0.488 °C.
In the case of MORC3 (UniProt Q14149), the melting temperature shift (MBE1 concentration: 100 nM) was -0.786 °C and the melting temperature shift (MBE1 concentration: 1 uM) was -0.165 °C.
For PWP1 (UniProt Q13610), in that order: -0.877 °C and 0.154 °C.
For PSMD6 (UniProt Q15008), in that order: -0.791 °C and 0.476 °C.
For UniProt Q14004, in that order: -0.417 °C and 0.995 °C.
On to LPIN1 (UniProt Q14693), for which the melting temperature shift (MBE1 concentration: 100 nM) is -0.0447 °C and the melting temperature shift (MBE1 concentration: 1 uM) came to 0.393 °C.
For NUMA1 (UniProt Q14980), in that order: -1.52 °C and -1.11 °C.
For EIF2B5 (UniProt Q13144), in that order: -0.263 °C and -0.0794 °C.
For UniProt Q13503, in that order: 1.32 °C and 5.29 °C.
On to EFTUD2 (UniProt Q15029), for which the melting temperature shift runs as follows: (MBE1 concentration: 100 nM) -0.821 °C; (MBE1 concentration: 1 uM) -0.868 °C.
Take UniProt Q14849: the melting temperature shift runs as follows: (MBE1 concentration: 100 nM) -0.889 °C; (MBE1 concentration: 1 uM) 0.586 °C.
For CUL1 (UniProt Q13616), in that order: -1.19 °C and -1.27 °C.
As to MOGS (UniProt Q13724), the melting temperature shift runs as follows: (MBE1 concentration: 100 nM) -0.122 °C; (MBE1 concentration: 1 uM) 0.409 °C.
For SQLE (UniProt Q14534), in that order: 0.812 °C and 1.37 °C.
For SLBP (UniProt Q14493), in that order: -1.07 °C and -1.06 °C.
For ROCK1 (UniProt Q13464), in that order: 1.06 °C and 0.0977 °C.
On to FLII (UniProt Q13045), for which the melting temperature shift is -0.104 °C (MBE1 concentration: 100 nM) and -0.055 °C (MBE1 concentration: 1 uM).
For GALE (UniProt Q14376), in that order: -0.512 °C and 0.482 °C.
Consider ARFRP1 (UniProt Q13795), for which the melting temperature shift is -0.852 °C (MBE1 concentration: 100 nM) and -0.845 °C (MBE1 concentration: 1 uM).
